Experimental data from PMC4354152.
No constants are given. Whether binding was seen depends on the method and setting. Binding seen in cells or lysates may run through a third protein. Binding calls can cover weak binding; strength is not graded here. Sequences can lack the tags named with a protein.

Assays:
[1] = biological target: T1, FLAG-Tmod3 WT stably expressed in 3T3-L1 adipocytes (mouse) (UniProt Q9JHJ0); assay: co-IP; immunoprecipitation from 3T3-L1 adipocytes expressing FLAG-Tmod3 (WT or LL mutant); endogenous tropomyosins detected by western blot
T1 sequence: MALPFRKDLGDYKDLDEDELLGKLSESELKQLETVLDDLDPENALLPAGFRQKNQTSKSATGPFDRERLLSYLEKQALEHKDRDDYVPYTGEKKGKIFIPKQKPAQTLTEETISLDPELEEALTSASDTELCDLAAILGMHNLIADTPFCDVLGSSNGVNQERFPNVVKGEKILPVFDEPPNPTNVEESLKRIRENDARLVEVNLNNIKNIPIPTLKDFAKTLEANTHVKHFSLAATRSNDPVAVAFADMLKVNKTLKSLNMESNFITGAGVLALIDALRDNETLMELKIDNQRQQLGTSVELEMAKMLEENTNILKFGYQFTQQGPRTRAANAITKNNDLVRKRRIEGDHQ

GST-Tm5NM1 = assay: pull-down; GST-Tm5NM1 beads incubated with lysates of HEK293T expressing HA-Tmod3-WT or HA-Tmod3-LL; TNET buffer, 4 °C; only the target purified

**Q.** “Tm1 (tropomyosin), endogenous in 3T3-L1 adipocytes (mouse (endogenous in 3T3-L1))” was tested. Which binding [1] did it give?
**A.** no binding

**Q.** With “Tm5NM1 (tropomyosin), endogenous in 3T3-L1 adipocytes (mouse (endogenous in 3T3-L1))” as the molecule, how does the binding [1] read?
**A.** binds

**Q.** How did the binding [1] turn out when “Tm3 (tropomyosin), endogenous in 3T3-L1 adipocytes (mouse (endogenous in 3T3-L1))” was run?
**A.** no binding

B1: HA-Tmod3-WT expressed in HEK293T (protein, UniProt Q9JHJ0 1-352)
chain: MALPFRKDLGDYKDLDEDELLGKLSESELKQLETVLDDLDPENALLPAGFRQKNQTSKSATGPFDRERLLSYLEKQALEHKDRDDYVPYTGEKKGKIFIPKQKPAQTLTEETISLDPELEEALTSASDTELCDLAAILGMHNLIADTPFCDVLGSSNGVNQERFPNVVKGEKILPVFDEPPNPTNVEESLKRIRENDARLVEVNLNNIKNIPIPTLKDFAKTLEANTHVKHFSLAATRSNDPVAVAFADMLKVNKTLKSLNMESNFITGAGVLALIDALRDNETLMELKIDNQRQQLGTSVELEMAKMLEENTNILKFGYQFTQQGPRTRAANAITKNNDLVRKRRIEGDHQ
**Q.** Which binding (GST-Tm5NM1) does the source give for B1 here?
**A.** binds

B2: HA-Tmod3-L29G/L134D (HA-Tmod3-LL) expressed in HEK293T (protein, UniProt Q9JHJ0 1-352)
chain: MALPFRKDLGDYKDLDEDELLGKLSESEGKQLETVLDDLDPENALLPAGFRQKNQTSKSATGPFDRERLLSYLEKQALEHKDRDDYVPYTGEKKGKIFIPKQKPAQTLTEETISLDPELEEALTSASDTELCDDAAILGMHNLIADTPFCDVLGSSNGVNQERFPNVVKGEKILPVFDEPPNPTNVEESLKRIRENDARLVEVNLNNIKNIPIPTLKDFAKTLEANTHVKHFSLAATRSNDPVAVAFADMLKVNKTLKSLNMESNFITGAGVLALIDALRDNETLMELKIDNQRQQLGTSVELEMAKMLEENTNILKFGYQFTQQGPRTRAANAITKNNDLVRKRRIEGDHQ
**Q.** With B2 as the molecule, how does the binding (GST-Tm5NM1) read?
**A.** no binding
